The text below walks through data of article PMC9035508.

Amino acid sequences for entries named in this document (tags omitted). Residues count along the entry.
UniProt Q9HCN6, residues 21-267: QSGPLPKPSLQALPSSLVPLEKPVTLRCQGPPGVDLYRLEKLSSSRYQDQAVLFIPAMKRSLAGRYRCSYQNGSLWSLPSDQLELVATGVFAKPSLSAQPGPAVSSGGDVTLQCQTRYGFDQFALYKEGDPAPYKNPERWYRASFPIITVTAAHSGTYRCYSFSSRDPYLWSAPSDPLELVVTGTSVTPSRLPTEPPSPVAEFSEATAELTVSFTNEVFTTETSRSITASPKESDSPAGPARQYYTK

These are yes or no findings as the source states them, for the method shown.

Assay [1] deals with T1, FXIII B-subunit (rh-FXIIIB2), recombinant (human) (UniProt P05160).
T1 sequence: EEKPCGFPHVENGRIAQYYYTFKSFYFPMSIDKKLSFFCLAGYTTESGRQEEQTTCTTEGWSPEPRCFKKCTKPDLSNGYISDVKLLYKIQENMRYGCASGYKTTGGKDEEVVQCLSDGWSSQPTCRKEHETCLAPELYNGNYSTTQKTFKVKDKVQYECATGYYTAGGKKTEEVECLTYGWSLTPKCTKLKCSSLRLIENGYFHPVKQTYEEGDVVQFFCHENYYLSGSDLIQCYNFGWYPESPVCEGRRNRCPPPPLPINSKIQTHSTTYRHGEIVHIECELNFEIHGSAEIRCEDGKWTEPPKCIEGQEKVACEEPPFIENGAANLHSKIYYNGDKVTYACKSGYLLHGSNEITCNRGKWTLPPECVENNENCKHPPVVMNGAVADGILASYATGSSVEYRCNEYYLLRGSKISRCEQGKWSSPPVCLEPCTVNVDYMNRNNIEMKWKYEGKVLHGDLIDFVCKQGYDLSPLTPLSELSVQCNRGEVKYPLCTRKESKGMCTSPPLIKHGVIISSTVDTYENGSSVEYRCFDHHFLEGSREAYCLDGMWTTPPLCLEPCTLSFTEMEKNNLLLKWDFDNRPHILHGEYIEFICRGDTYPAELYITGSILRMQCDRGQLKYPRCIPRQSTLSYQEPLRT
In words: ELISA; FXIII proteins or collagen type III coated at 10 µg/mL; GPVI-Fc2 or GPVIex at a fixed 50 µg/mL; bound GPVI detected by 1G5/IRDye 800CW anti-mouse antibody (Figure 1A, 1C); both purified.

In assay [2] the target is T1, FXIII B-subunit (rh-FXIIIB2), recombinant (human). The assay is described as follows: ELISA; FXIII proteins or collagen type III coated on wells at 10 µg/mL (overnight, 4°C), blocked with 0.5% BSA; GPVI-Fc2 added at varied concentrations; bound GPVI detected by 1G5/IRDye 800CW anti-mouse antibody; KD from binding curves (Figure 1B); both purified.

Consider “GPVI-Fc2 (recombinant human GPVI extracellular domain, dimer) (from UniProt Q9HCN6 21-267) (Fc fusion)”, for which the figures for the binding result in assay [1] and in assay [2] were “no binding (tested: 50 µg/mL)” and “no binding”, respectively.

Regarding “GPVIex (recombinant human GPVI extracellular domain, monomer) (from UniProt Q9HCN6 21-267) (domain or fragment)”, the binding entry in assay [1] was “no binding (tested: 50 µg/mL)”.
